Earlier results as cited in patent US20140004043A1, “CRYPTOPHANE DERIVATIVES AND METHODS OF USE THEREOF” (Georgetown Univeristy, priority 2010, published 2014).
Where two headings read alike, the source gives them in different places. Marks after values point to notes of the source that are not given here.

Details: TCE-d2, cited from earlier work

Structure (SMILES) | δ, 129Xe chemical shift of caged xenon (Xe@host signal) | δ, 129Xe chemical shift of caged xenon (Xe@host signal) (listed as A)
c1cc2c3cc1OCOc1ccc4c(c1)Cc1ccc5cc1Cc1ccc(cc1C4)OCOc1ccc(c(c1)Cc1ccc(cc1C2)OCO5)C3 (racemic) [Cryptophane 1, (±)-cryptophane-1,1,1] | 31 ppm | 
COc1cc2c3cc1OCCOc1cc4c(cc1OC)Cc1cc5c(OC)cc1Cc1cc(c(OC)cc1C4)OCCOc1cc(c(cc1OC)C3)Cc1cc(OC)c(cc1C2)OCCO5 [A (or 222), (±)-cryptophane-A] | 63^c ppm | 63 ppm
